{
  "source": "patent US20210171598A1",
  "about": "“PEPTIDE HORMONE WITH ONE OR MORE O-GLYCANS” (priority 2017, published 2021)",
  "assay": "O-glycoproteomics (LWAC enrichment, nLC-MS/MS) identification of O-glycosites on peptide hormones",
  "conditions": "O-glycosite; for Site position (identified or conserved in humans): residue numbered from Peptide Start 1, Table 6C",
  "data": [
    {"substance": "Insulin B chain", "values": [
      {"measurement": "Site position (identified or conserved in humans)", "result": "T27 (Ambiguous)"}
    ]},
    {"substance": "Glucago-like peptide 1 (7-36)", "values": [
      {"measurement": "Site position (Bold); identified or conserved in human, Italic: identified in non-human and not conserved", "setting": "residue numbered from Peptide Start 1, Table 6B", "result": "T5 or T7 or S8 (Ambiguous)"},
      {"measurement": "Site position (identified or conserved in humans)", "result": "T5 or T7 or S8 (Ambiguous)"}
    ]}
  ]
}
